Data reported in publication doi:10.1101/2022.01.28.478199.
Results are given in words; binding and its absence hold for the method and conditions named. In cells and extracts the contact can be indirect. Some binding calls cover weakened binding; strength is not graded here.

The chains behind the UniProt entries cited, without tags or fusion partners. Residues count along the entry.
UniProt P33416, residues 45-811: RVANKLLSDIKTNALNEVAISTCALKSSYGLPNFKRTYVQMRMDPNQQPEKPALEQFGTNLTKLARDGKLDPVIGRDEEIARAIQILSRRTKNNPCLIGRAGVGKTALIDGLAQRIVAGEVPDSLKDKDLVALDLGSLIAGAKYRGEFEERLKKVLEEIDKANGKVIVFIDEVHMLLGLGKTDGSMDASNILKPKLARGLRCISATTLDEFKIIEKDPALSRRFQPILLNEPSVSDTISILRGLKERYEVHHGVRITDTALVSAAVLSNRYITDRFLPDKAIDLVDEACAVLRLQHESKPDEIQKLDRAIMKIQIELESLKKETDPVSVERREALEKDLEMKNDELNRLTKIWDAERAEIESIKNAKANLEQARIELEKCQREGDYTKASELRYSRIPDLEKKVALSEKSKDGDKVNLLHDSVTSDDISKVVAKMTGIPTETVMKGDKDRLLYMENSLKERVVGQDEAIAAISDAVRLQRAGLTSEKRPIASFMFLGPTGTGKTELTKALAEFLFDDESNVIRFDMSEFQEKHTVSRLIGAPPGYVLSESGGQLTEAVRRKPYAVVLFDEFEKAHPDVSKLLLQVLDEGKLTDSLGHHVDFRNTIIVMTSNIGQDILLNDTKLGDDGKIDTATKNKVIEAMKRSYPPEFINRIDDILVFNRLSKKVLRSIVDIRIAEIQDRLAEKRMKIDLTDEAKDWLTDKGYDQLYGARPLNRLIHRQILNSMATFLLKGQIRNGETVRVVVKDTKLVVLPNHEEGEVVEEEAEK

B1: Ilv2 (protein, UniProt P07342 91-687)
chain: GLTGGQIFNEMMSRQNVDTVFGYPGGAILPVYDAIHNSDKFNFVLPKHEQGAGHMAEGYARASGKPGVVLVTSGPGATNVVTPMADAFADGIPMVVFTGQVPTSAIGTDAFQEADVVGISRSCTKWNVMVKSVEELPLRINEAFEIATSGRPGPVLVDLPKDVTAAILRNPIPTKTTLPSNALNQLTSRAQDEFVMQSINKAADLINLAKKPVLYVGAGILNHADGPRLLKELSDRAQIPVTTTLQGLGSFDQEDPKSLDMLGMHGCATANLAVQNADLIIAVGARFDDRVTGNISKFAPEARRAAAEGRGGIIHFEVSPKNINKVVQTQIAVEGDATTNLGKMMSKIFPVKERSEWFAQINKWKKEYPYAYMEETPGSKIKPQTVIKKLSKVANDTGRHVIVTTGVGQHQMWAAQHWTWRNPHTFITSGGLGTMGYGLPAAIGAQVAKPESLVIDIDGDASFNMTLTELSSAVQAGTPVKILILNNEEQGMVTQWQSLFYEHRYSHTHQLNPDFIKLAEAMGLKGLRVKKQEELDAKLKEFVSTKGPVLLEVEVDKKVPVLPMVAGGSGLDEFINFDPEVERQQTELRHKRTGGKH
B2: Mdj1 (member of the DnaJ co-chaperone family of the mitochondrial Hsp70 system) (protein, UniProt P35191 56-511)
chain: NEAFKDPYDTLGLKKSATGAEIKKAYYKLAKKYHPDINKEPDAEKKFHDLQNAYEILSDETKRQQYDQFGPAAFGGGGAAGGAGGGSGSPFGSQFHDFSGFTSAGGSPFGGINFEDLFGAAFGGGGRGSGGASRSSSMFRQYRGDPIEIVHKVSFKDAVFGSKNVQLRFSALDPCSTCSGTGMKPNTHKVSCSTCHGTGTTVHIRGGFQMMSTCPTCNGEGTMKRPQDNCTKCHGEGVQVNRAKTITVDLPHGLQDGDVVRIPGQGSYPDIAVEADLKDSVKLSRGDILVRIRVDKDPNFSIKNKYDIWYDKEIPITTAALGGTVTIPTVEGQKIRIKVAPGTQYNQVISIPNMGVPKTSTIRGDMKVQYKIVVKKPQSLAEKCLWEALADVTNDDMAKKTMQPGTAAGTAINEEILKKQKQEEEKHAKKDDDNTLKRLENFITNTFRKIKGDKKN
B3: Mdh1 (protein, UniProt P17505 18-334)
chain: YKVTVLGAGGGIGQPLSLLLKLNHKVTDLRLYDLKGAKGVATDLSHIPTNSVVKGFTPEEPDGLNNALKDTDMVLIPAGVPRKPGMTRDDLFAINASIVRDLAAATAESAPNAAILVISNPVNSTVPIVAQVLKNKGVYNPKKLFGVTTLDSIRAARFISEVENTDPTQERVNVIGGHSGITIIPLISQTNHKLMSDDKRHELIHRIQFGGDEVVKAKNGAGSATLSMAHAGAKFANAVLSGFKGERDVIEPSFVDSPLFKSEGIEFFASPVTLGPDGIEKIHPIGELSSEEEEMLQKCKETLKKNIEKGVNFVASK

Each binder was assayed against Hsp78-6xHis (wild-type Hsp78 with a C-terminal 6x polyhistidine-tag) (S. cerevisiae) (UniProt P33416) (assay: pull-down).
For B1, the binding was “binds”. For B2, the binding was “binds”. With B3 the binding was “no binding”.
